For assay [1], the target named is gelsolin (human (endogenous in SiHa, CaSki and C-33A)) (UniProt P06396). As to the kind of experiment: FRET or BRET; quantitative FRET by flow cytometry, cell by cell, in fixed and permeabilised SiHa and CaSki cells (C-33A as E7-null reference); endogenous E7 labelled with anti-E7 MAb + PE anti-mouse (donor, FL2), GSN with anti-gelsolin PAb + Cy5 anti-rabbit (acceptor, FL4), FRET in FL3; FRET efficiency by Riemann's algorithm. A general note: BRET reads energy transfer from a luciferase to a nearby fluorophore.

Protein sequences, listed by entry. Tags and fused reporters are not part of them. Lines headed by an entry give the natural chain unless they say otherwise; changes in a name come on top.
UniProt P06396: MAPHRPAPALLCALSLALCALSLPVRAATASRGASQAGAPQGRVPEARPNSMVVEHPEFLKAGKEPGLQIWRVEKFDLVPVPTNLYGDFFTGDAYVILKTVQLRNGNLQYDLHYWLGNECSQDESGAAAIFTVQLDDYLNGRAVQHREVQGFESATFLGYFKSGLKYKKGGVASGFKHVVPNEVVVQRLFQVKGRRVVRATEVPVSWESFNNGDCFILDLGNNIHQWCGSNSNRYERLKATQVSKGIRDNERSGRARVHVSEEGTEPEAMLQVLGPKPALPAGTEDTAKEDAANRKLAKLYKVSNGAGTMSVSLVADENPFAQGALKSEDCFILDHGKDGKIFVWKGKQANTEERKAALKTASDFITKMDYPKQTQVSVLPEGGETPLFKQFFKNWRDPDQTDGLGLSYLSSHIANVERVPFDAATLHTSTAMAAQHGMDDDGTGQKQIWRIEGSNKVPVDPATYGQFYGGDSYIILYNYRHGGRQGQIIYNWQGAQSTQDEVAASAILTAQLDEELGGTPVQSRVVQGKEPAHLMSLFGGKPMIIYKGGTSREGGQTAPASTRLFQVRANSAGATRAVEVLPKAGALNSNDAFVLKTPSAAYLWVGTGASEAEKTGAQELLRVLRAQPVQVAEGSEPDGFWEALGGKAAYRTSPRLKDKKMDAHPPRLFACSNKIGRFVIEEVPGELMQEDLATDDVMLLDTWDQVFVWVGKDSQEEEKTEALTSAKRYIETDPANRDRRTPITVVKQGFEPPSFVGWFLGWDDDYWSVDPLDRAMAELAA
UniProt P03129: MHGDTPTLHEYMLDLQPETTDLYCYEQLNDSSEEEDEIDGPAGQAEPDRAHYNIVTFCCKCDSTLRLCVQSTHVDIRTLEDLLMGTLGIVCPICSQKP

Assay [2] shares this target. As to the kind of experiment: FRET or BRET; quantitative FRET by flow cytometry in fixed and permeabilised C-33A cells transfected with E7 wt or deletion mutants, analysis restricted to FL1-positive (transfected) cells; E7 labelled with anti-E7 MAb + PE anti-mouse (donor), endogenous GSN with anti-gelsolin PAb + Cy5 anti-rabbit (acceptor); FRET efficiency by Riemann's algorithm.

We go through two substances from paper PMC5239452.

No constants are given. Whether binding was seen depends on the method and setting. Binding seen in cells or lysates may run through a third protein. Binding calls can cover weak binding; strength is not graded here.

On to “HPV16 E7 oncoprotein (from UniProt P03129 1-98)”, for which the binding result in assay [1] was “binds”.
“wild type E7 oncoprotein (E7 wt) (from UniProt P03129 1-98)”: the binding result in assay [2] is “binds”.
